Two molecules from PMC3723895 can be followed below.

Protein sequences, listed by entry. Tags and fused reporters are not part of them.
UniProt P23804: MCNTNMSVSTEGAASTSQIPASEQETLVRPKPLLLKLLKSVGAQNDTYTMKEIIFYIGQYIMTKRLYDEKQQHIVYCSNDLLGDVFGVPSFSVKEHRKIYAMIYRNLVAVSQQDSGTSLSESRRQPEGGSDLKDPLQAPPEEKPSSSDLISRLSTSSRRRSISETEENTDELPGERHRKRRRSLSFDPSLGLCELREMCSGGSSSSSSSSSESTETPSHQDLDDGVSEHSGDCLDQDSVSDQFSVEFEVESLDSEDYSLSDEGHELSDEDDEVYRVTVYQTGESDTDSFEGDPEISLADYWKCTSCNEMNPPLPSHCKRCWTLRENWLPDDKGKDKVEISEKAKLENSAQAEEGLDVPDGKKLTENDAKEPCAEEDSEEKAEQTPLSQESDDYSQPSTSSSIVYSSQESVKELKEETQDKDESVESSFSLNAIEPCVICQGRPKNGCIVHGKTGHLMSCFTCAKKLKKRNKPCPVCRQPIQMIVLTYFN

No constants are given. Whether binding was seen depends on the method and setting. In cells and extracts the contact can be indirect. Some results given as binding are weak or reduced against the parent protein; the word gives no strength.

For this assay, the target named is Mdm2 (murine double minute 2) (mouse (endogenous in E13.5 embryos)) (UniProt P23804). Description: co-IP; 1 mg whole E13.5 embryo lysate (wild-type or mray/mray) with 10 ug Mdm2 antibody overnight at 4 °C, protein G Dynabeads 2.5 h, three washes; western blot with Pak1ip1 antibody; in triplicate. (A western blot detects proteins with antibodies after separation by electrophoresis.)

B1: Pak1ip1 (Pak1 interacting protein 1), wild-type mouse protein (protein, UniProt Q9DCE5 1-382)
chain: MELVAGSYEQVLFGFTVQRGPAKSGHQETWTPVADFTHHSHTASLSVLASNSRYVVSGSKDETIHIYDMKRKVEHGALVHHAGTVTCLKFHGNQHLISGAEDGHICIWDVKRWKCLKTFKAHRGHVTFLSIHPSGKLALSVGTDKTLRTWNLIEGRSAFIKNIKENAHIVEWSPSGGKYIVVVQNKVDVYRLGTASVSGTITNGKRISSVTFLSDSVLAVAGDEEVVRIFDCDSLECLCEFRAHENRVKDMVSFEVPDHHVLVTASNDGFIKMWTLPQDKKVPPSLLCEAKTGARLTCLTVWLDRAANGMASLPPAAEPCPDQPKTIEKESGDTVQEETSEPNSEKSDVSGDSKQPTKGNSPVTAKKRKMATMSEKKRKKKM
As for B1, the binding result is recorded as “binds”.

B2: Pak1ip1 H122Y, protein of the manta-ray (mray) allele (protein, UniProt Q9DCE5 1-382)
chain: MELVAGSYEQVLFGFTVQRGPAKSGHQETWTPVADFTHHSHTASLSVLASNSRYVVSGSKDETIHIYDMKRKVEHGALVHHAGTVTCLKFHGNQHLISGAEDGHICIWDVKRWKCLKTFKAYRGHVTFLSIHPSGKLALSVGTDKTLRTWNLIEGRSAFIKNIKENAHIVEWSPSGGKYIVVVQNKVDVYRLGTASVSGTITNGKRISSVTFLSDSVLAVAGDEEVVRIFDCDSLECLCEFRAHENRVKDMVSFEVPDHHVLVTASNDGFIKMWTLPQDKKVPPSLLCEAKTGARLTCLTVWLDRAANGMASLPPAAEPCPDQPKTIEKESGDTVQEETSEPNSEKSDVSGDSKQPTKGNSPVTAKKRKMATMSEKKRKKKM
For B2, the binding result was “binds”.
